# At least one structure is not confirmed: it was looked up by name or label, or the drawing left a doubt.
# Tested on: YAP
# Assay: Anti-YAP immunofluorescence staining in A549 cells (YAP nuclear translocation)
# Type: cell-based
# Conditions: anti-YAP antibody and DAPI
# Description: FIG. 7H illustrates A549 cells treated with DMSO, EVG or PC(Positive compound) were stained with anti-YAP antibody and DAPI. […] Scale bar represents 40 μm.
smiles,measurement,value
"Cc1cnc(Nc2ccc(OCCN3CCCC3)cc2)nc1Nc1cccc(S(=O)(=O)NC(C)(C)C)c1 [PC, fedratinib]",YAP nuclear translocation,translocated from nucleus to cytoplasm

# From patent publication US20240125768A1, “METHODS FOR MODULATING A SRC-1 CONDENSATE” (ETERN BIOPHARMA (SHANGHAI) CO., LTD., priority 2021, published 2024)
